Measurements taken from patent US20240301319A1, “PERFUMING COMPOSITIONS” (FIRMNICH SA, priority 2017, published 2024).

Assay: Volatility of perfuming compounds (Tables 4 to 10), with top/middle/bottom note type
Assay type: physicochemical
Procedure: In some aspects, the first perfume accord comprises perfuming compounds having a volatility ranging from 70,000 to 100 μg/l in air. In some aspects, perfuming compounds having a volatility ranging from 70,000 to 100 μg/l in air are referred to as “top notes”.
In some aspects, the second perfume accord comprises perfuming compounds having a volatility ranging from 99 to 50 μg/l in air. In some aspects, perfuming compounds having a volatility ranging from 99 to 50 μg/l in air are referred to as “middle notes”.
In some aspects, the third perfume accord comprises perfuming compounds having a volatility ranging from 49 to 0.1 μg/l in air. In some aspects, perfuming compounds having a volatility ranging from 49 to 0.1 μg/l in air are referred to as “bottom notes”.
Tables 4 to 10 describe top, middle and bottom note perfuming compounds for watery, green, fruity, citrus, sweet, gourmand and woody notes respectively.

CCCCCCCC1CCC(=O)O1 (racemic) [(+−)-5-heptyldihydro-2(3H)-furanone]
Type: Bottom
Volatility: 3.67 μg/l air
